Values of other authors, collected in patent US20240398698A1, “CONAZOLANTIFUNGAL KETOE IN SOLUTION OR SUSPENSION FOR USE IN THE HUMAN EAR” (priority 2023, published 2024).

C[C@@H]1C[C@H]2[C@@H]3CCC4=CC(=O)C=C[C@]4(C)[C@@]3(F)[C@@H](O)C[C@]2(C)[C@@]1(O)C(=O)CO [dexamethasone]
solubility in water: practically insoluble
